1 molecule from CN112794900A can be followed below.

The target in assay [1] is T1, cBIN1 Isoform II2 (cBIN1 exon1-13&18-20) (UniProt O00499).
T1 sequence (looked up): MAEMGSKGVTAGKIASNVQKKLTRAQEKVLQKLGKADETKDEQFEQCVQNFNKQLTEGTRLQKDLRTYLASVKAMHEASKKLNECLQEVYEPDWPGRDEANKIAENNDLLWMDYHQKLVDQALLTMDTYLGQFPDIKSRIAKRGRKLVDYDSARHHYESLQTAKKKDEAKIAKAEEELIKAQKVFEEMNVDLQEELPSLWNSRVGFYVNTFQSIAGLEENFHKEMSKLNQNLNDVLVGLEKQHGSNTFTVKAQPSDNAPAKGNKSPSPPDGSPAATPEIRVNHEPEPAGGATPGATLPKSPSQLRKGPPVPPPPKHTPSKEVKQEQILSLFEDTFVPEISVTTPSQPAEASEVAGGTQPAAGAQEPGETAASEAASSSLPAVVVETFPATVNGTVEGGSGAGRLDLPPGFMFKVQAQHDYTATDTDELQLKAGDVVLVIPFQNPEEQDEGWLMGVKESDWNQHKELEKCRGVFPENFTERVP
Description: ELISA, antigen coated.

In assay [2] the target is T1, cBIN1 Isoform II2 (cBIN1 exon1-13&18-20). Description: Western blot, primary antibody at 10μg/ml.

No constants are given. Whether binding was seen depends on the method and setting. Some binding calls cover weakened binding; strength is not graded here.

B1: 鼠源抗体 8G1-D7-F5 (抗人源cBIN1 exon13抗体) (antibody, V domains shown)
VH: EVQLQQSGAELVRPGASVKLSCTTSGFNIKDSYMHWVKQRPEQGLEWIGRIDPEDDDAVYAPKFQDRATMTADTSSNTAYLHLSSLTSDDTAVYYCTTSTLVATPWFFDVWGTGTTVTVSS
VL: DIQMTQTTSSLSASLGDRVTISCSASQDINNYLNWYQQKPDGTVKLLIYYTSTLHSGVPSRFSGSGSGTDYSLTITNLEPEDFATYYCQQYTHNLPWTFGGGTKLEIK
Regarding B1, the binding entry in assay [1] and in assay [2] was “binds” throughout.
